Data as given in article PMC8611018, “Apelin-13 in septic shock: effective in supporting hemodynamics in sheep but compromised by enzymatic breakdown in patients” (Scientific Reports, 2021).
These are yes or no findings as the source states them, for the method shown. For some of these results: In cells and extracts the contact can be indirect. Some entries that bind do so weakly or less than the wild type.

Chains of the proteins cited; added tags and fusions are not shown. Lines headed by an entry give the natural chain unless they say otherwise; changes in a name come on top.
UniProt Q9ULZ1: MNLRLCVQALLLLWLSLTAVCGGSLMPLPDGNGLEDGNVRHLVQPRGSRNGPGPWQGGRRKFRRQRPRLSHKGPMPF
UniProt P32121: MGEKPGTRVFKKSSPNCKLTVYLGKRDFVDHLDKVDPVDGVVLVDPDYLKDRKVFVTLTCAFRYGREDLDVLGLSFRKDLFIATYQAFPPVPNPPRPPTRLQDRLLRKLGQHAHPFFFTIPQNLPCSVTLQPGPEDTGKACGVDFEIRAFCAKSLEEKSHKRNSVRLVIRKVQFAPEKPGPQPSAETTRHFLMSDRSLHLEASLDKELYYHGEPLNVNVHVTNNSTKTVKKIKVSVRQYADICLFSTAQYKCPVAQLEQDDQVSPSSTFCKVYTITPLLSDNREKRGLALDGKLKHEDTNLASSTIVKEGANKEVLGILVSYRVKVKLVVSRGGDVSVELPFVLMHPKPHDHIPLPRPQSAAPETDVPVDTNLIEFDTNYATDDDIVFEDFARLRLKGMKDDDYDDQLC

What was measured:
[1] = molecular target: HA epitope-tagged sheep APJ (apelin receptor) (Ovis aries); assay: radioligand binding; competition: HEK293 cells with surface expression of HA-tagged sheep APJ incubated with 0.2 nM [125I]-(pyr1)APLN-13 and cold APLN-13 or ELA (10^-11 to 10^-5 M), 1 h, room temperature; γ-counter; only the binder purified
[2] = molecular target: sheep APJ-GFP10 (Ovis aries); assay: FRET or BRET; BRET2 between sheep APJ-GFP10 and RlucII-β-arrestin2 in transfected HEK293 cells; stimulated with APLN-13 or ELA (10^-5 to 10^-11 M), 37 °C, 30 min; coelenterazine 400A

binding [1] | binding [2] | Molecule
binds |  | [125I]-(pyr1)Apelin(APLN)-13 (from UniProt Q9ULZ1 65-77) (peptide)
 | binds | RlucII-β-arrestin2 (from UniProt P32121 1-409)
binds |  | human apelin-13 (APLN-13), unlabelled (from UniProt Q9ULZ1 65-77) (peptide)
binds |  | QRPVNLTMRRKLRKHNCLQRRCMPLHSRVPFP (peptide, UniProt P0DMC3 23-54) [human Elabela (ELA)]
